Laboratory results reported in PMC8703407.
These are yes or no findings as the source states them, for the method shown. In cells and extracts the contact can be indirect. Some results given as binding are weak or reduced against the parent protein; the word gives no strength. For some assays here: Tags and fused reporters may be left off the sequences shown.

Protein sequences, listed by entry. Tags and fused reporters are not part of them. Residues count along the entry.
UniProt O95793, residues 82-577: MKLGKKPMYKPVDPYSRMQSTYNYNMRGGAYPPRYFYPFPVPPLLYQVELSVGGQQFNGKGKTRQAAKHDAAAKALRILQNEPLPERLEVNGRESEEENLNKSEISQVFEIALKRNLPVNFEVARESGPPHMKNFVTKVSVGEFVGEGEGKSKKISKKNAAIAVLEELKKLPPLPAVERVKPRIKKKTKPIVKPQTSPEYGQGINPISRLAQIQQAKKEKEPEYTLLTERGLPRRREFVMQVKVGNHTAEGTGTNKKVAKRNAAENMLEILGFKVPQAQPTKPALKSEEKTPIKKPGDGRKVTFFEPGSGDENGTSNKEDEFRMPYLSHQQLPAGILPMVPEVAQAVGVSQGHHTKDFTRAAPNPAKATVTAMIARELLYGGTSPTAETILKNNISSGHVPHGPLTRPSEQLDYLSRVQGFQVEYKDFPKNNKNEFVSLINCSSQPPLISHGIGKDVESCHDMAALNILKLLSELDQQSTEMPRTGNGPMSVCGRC

B1: Staufen-2 (detected with anti-Staufen-2 antibody in HEK293T lysate) (protein, UniProt Q9NUL3 1-570)
chain: MANPKEKTAMCLVNELARFNRVQPQYKLLNERGPAHSKMFSVQLSLGEQTWESEGSSIKKAQQAVANKALTESTLPKPVQKPPKSNVNNNPGSITPTVELNGLAMKRGEPAIYRPLDPKPFPNYRANYNFRGMYNQRYHCPVPKIFYVQLTVGNNEFFGEGKTRQAARHNAAMKALQALQNEPIPERSPQNGESGKDVDDDKDANKSEISLVFEIALKRNMPVSFEVIKESGPPHMKSFVTRVSVGEFSAEGEGNSKKLSKKRAATTVLQELKKLPPLPVVEKPKLFFKKRPKTIVKAGPEYGQGMNPISRLAQIQQAKKEKEPDYVLLSERGMPRRREFVMQVKVGNEVATGTGPNKKIAKKNAAEAMLLQLGYKASTNLQDQLEKTGENKGWSGPKPGFPEPTNNTPKGILHLSPDVYQEMEASRHKVISGTTLGYLSPKDMNQPSSSFFSISPTSNSSATIARELLMNGTSSTAEAIGLKGSSPTPPCSPVQPSKQLEYLARIQGFQAALSALKQFSEQGLDPIDGAMNIEKGSLEKQAKHLREKADNNQAPPGSIAQDCKKSNSAV
B2: APOBEC3G HA, Q9HC16 1-384 (protein)
chain: MKPHFRNTVERMYRDTFSYNFYNRPILSRRNTVWLCYEVKTKGPSRPPLDAKIFRGQVYSELKYHPEMRFFHWFSKWRKLHRDQEYEVTWYISWSPCTKCTRDMATFLAEDPKVTLTIFVARLYYFWDPDYQEALRSLCQKRDGPRATMKIMNYDEFQHCWSKFVYSQRELFEPWNNLPKYYILLHIMLGEILRHSMDPPTFTFNFNNEPWVRGRHETYLCYEVERMHNDTWVLLNQRRGFLCNQAPHKHGFLEGRHAELCFLDVIPFWKLDLDQDYRVTCFTSWSPCFSCAQEMAKFISKNKHVSLCIFTARIYDDQGRCQEGLRTLAEAGAKISIMTYSEFKHCWDTFVDHQGCPFQPWDGLDEHSQDLSGRLRAILQNQEN

Columns and labels:
[1] = molecular target: Staufen-1 HA (pcDNA3-RSV-Stau1 55 HA) (UniProt O95793); experiment: co-IP
APOBEC3G HA, Q9HC16 = experiment: co-IP; conditions: remark: other sources report otherwise

Binder	binding [1]	binding (APOBEC3G HA, Q9HC16)
B1	binds	
B2		binds
